From PubChem BioAssay AID1259415 (National Center for Advancing Translational Sciences (NCATS), 2018)
Out of some 410,000 compounds screened, about 18,000 (4.4%) were called active. Inconclusive means that the source gave no clear call. Such entries were picked first, then a sample of the others. Rule as the data show it: active = activity change below about -60%; inconclusive = no clear call, values can overlap the other calls; inactive = above about -39%.

assay: qHTS Assay for inhibitors of the human cytomegalovirus (HCMV); conditions: HFF cells, HCMV-luciferase reporter, 72 h; at 57.5 µM; active compounds read low
Method in brief: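 Screen run at 2 compound doses on HFFs infected with reporter HCMV, MOI 1 PFU/cell. Luciferase activity from cell lysates at 72 h post infection gave inhibition relative to buffer-only and Salinomycin wells.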
% is scaled to controls: 0 for no effect and ±100 for the full control effect.

SMILES | activity change, negative = inhibition
O=C(Nc1ccc2oc(-c3ccncc3)nc2c1)c1ccc(F)cc1 | inconclusive: -58.4%
O=C(COc1ccc(-c2ccccc2)cc1)Nc1cccnc1 | inconclusive: -42.4%
CCc1ccc([C@@H]2CC=C(C(=O)O)[C@H](c3ccc(C(C)(C)C)cc3)N2S(=O)(=O)c2ccc(C)cc2)cc1 | inactive: -36%
Cc1cc(C)c2nc(C)cc(Nc3ccc(C(=O)NCCO)cc3)c2c1 | active: -91%
Cc1scc(C(=O)NNC(=S)NCc2ccccc2)c1C | active: -63.5%
COc1cccc(CNc2nc3cc(-c4ccccc4)sc3c(=O)n2C)c1 | active: -65%
OCCCNC(=S)Nc1ccc(Br)cc1Cl | inactive: 55.2%
COc1ccc(C2=CC(=O)C[C@H](c3ccc(F)cc3)C2)c(F)c1F | inconclusive: -49.5%
C(=C\c1ccccc1)/CN1CCN(c2ncnc3c2oc2ccccc23)CC1 | active: -72.7%
CCNC(=S)N(CCc1ccc(S(N)(=O)=O)cc1)C1CC(=O)N(c2ccccc2)C1=O (configuration not stated) | inconclusive: -41.3%
CC(C)(C)n1ncc2c(=O)n(CC(=O)N3CCCc4ccccc43)cnc21 | inactive: -9.02%
CC(=O)c1c(C)nc(-c2ccc(Cl)cc2Cl)n1O | inconclusive: -47.6%
COc1ccc(N2CC(NC(=O)NC(C)(C)C)CC2=O)cc1 (configuration not stated) | inconclusive: -45.3%
Cc1ccc(NC(=O)CCC(=O)NNC(=O)C(C)(C)C)c(C)c1 | inconclusive: -53.4%
COC(CNC(=O)c1ccc2c(c1)ncn2-c1cccc(F)c1)OC | active: -73.1%
CCN(C(=O)CN1C(=O)COc2ccc(S(=O)(=O)N3CCCCCC3)cc21)c1cccc(C)c1 | active: -63.1%
CCCN1CCC(=O)N([C@H](CN=[N+]=[N-])Cc2ccccc2)CC1 | inactive: -4.55%
N#C/C(=C\c1cccnc1)c1nc2c(s1)CCCC2 | inconclusive: -40.1%
Cc1ccc(C)c(S(=O)(=O)N2CCN(C(=O)CCC(=O)NCc3ccc(Cl)cc3Cl)CC2)c1 | inactive: -26.7%

SMILES | activity change, negative = inhibition
NC(=O)CS(=O)(=O)c1nc2ccccc2n1Cc1ccccn1 | inconclusive: -56.5%
Cc1ccccc1C(=O)Nc1nc2nc(-c3ccccc3)cc(=O)n2[nH]1 | inactive: 5.28%
Cc1ccc(C(C)C)c(OCC(=O)Nc2ccccc2N2CCN(C)CC2)c1 | active: -73.7%
O=C(NCc1ccccn1)c1ccc(CNS(=O)(=O)c2cccc(C(F)(F)F)c2)cc1 | inconclusive: -42.6%
Cc1cccc(C)c1OCc1cc(C(=O)N2CCN(c3ccc(F)cc3)CC2)no1 | inactive: 30.7%
COc1ccc(OC)c(NC(=O)C2CCN(c3cc(-c4ccccc4)nc4ncnn34)CC2)c1 | inconclusive: -46.6%
CCOc1ccc2c(c1)C(c1cccs1)=NNC(c1cccnc1)=N2 | active: -71.1%
COCCn1c(C)cc(C(=O)CSc2cc(C)c3ccc(OC)cc3n2)c1C | inconclusive: -47.9%
O=C(CN1CCN(c2ccc(F)cc2)CC1)N1CCC(Cc2ccccc2)CC1 | inconclusive: -41.8%
Cc1nnc(Cl)c2nn(-c3ccccc3)c(C)c12 | inactive: -17.8%
CCOC1=C2[C@@H](CN(S(=O)(=O)c3ccccc3C)[C@H]2c2ccc(Cl)cc2)[C@H]2C(=O)NC(=O)[C@H]2C1 | active: -76.4%
COc1ccc(C2=NCCn3cccc32)c(OC)c1 | inconclusive: -48.9%
CCOc1cc(C(=O)NCCc2csc3nc(-c4ccccc4F)nn23)cc(OCC)c1OCC | inactive: -1.5%
Cn1nccc1C(=O)NC(=S)Nc1cc(Cl)cc(Cl)c1 | inconclusive: -58%
Cc1ccc(-c2cc(C(=O)Nc3nccs3)c3ccccc3n2)o1 | inactive: 83.3%
CC1Cc2ccccc2N1C(=O)CSc1nnc(C2CC2)n1C (configuration not stated) | inconclusive: -45.4%
CCN(C(=O)COC(=O)/C=C/c1ccco1)C1CCCCC1 | inconclusive: -41.4%
O=C1C=C(c2cc(F)ccc2F)C[C@@H](c2ccc(F)cc2)C1 | inconclusive: -58.9%
NNC(=O)c1cc2c(N3CCC(Cc4ccccc4)CC3)ncnc2s1 | inconclusive: -49.5%

Grouped by structure, those above containing a thiophene ring, fused or not.
SMILES | activity change, negative = inhibition
Cc1scc(C(=O)NNC(=S)NCc2ccccc2)c1C | active: -63.5%
COc1cccc(CNc2nc3cc(-c4ccccc4)sc3c(=O)n2C)c1 | active: -65%
CCOc1ccc2c(c1)C(c1cccs1)=NNC(c1cccnc1)=N2 | active: -71.1%
NNC(=O)c1cc2c(N3CCC(Cc4ccccc4)CC3)ncnc2s1 | inconclusive: -49.5%

Next results.

SMILES | activity change, negative = inhibition
C=CCN=c1scc(-c2ccc(F)cc2)n1/N=C/c1ccccn1 | active: -85.3%
O=C(COC(=O)c1ccc(S(=O)(=O)N2CCCC2)cc1)Nc1ccc(N2CCOCC2)cc1 | inconclusive: -40.2%
CCc1noc(-c2ccc(NCc3ccccc3)c([N+](=O)[O-])c2)n1 | inactive: 45%
C(=NNc1ccc2ccccc2n1)c1ccccn1 | active: -101%
COc1ccc(NC2=C(C(C)=O)C(c3ccc(N(C)C)cc3)C(C(C)=O)C(C)(O)C2)cc1 (configuration not stated) | inconclusive: -45.1%
CCc1ccc(OCC(=O)N(Cc2ccco2)Cc2ccccc2Cl)cc1 | inconclusive: -41.9%
O=c1cc(-c2ccccc2)[nH]c2ccc(F)cc12 | active: -62%
NC(=S)Nc1nc2ccccc2s1 | active: -108%
O=C(N/N=C/c1cccc([N+](=O)[O-])c1)c1ccc(COc2ccccc2-c2ccccc2)cc1 | inconclusive: -47.7%
O=C(N/N=C/c1ccc([N+](=O)[O-])o1)c1ccccc1NS(=O)(=O)c1cccs1 | inconclusive: -51.5%
CCCC(c1nnnn1Cc1cccs1)N1CCN(C)CC1 (configuration not stated) | inactive: -32.5%
COCCN(Cc1cc2cc3c(cc2nc1Cl)OCO3)C(=O)Nc1ccccc1OC | inconclusive: -55.5%
N#C/C(=C\c1ccc(N2CCOCC2)o1)C(=O)NC1CCCCC1 | inactive: -6.23%
COc1cc(-c2cc(C(=O)Nc3ccc(O)cc3)c3ccccc3n2)cc(OC)c1OC | inactive: -0.506%
CC(C)(C)C1COc2ccccc2N1C(=O)c1cccc(Cl)c1 (configuration not stated) | inconclusive: -52.2%
Cn1cnc(S(=O)(=O)N2CCCCC2c2cc(C(=O)Nc3cccc4c3CCCC4)no2)c1 (configuration not stated) | inactive: -28.9%
O=C(NCc1ccccc1)c1ccc(F)c(F)c1 | inactive: 52.1%
CCc1c(C)c(C#N)c2[nH]c3ccccc3n2c1=S | active: -102%
O=C(c1ccco1)N1CCN(C(=O)C(Cc2ccccc2)NS(=O)(=O)c2cccs2)CC1 (configuration not stated) | inactive: 24.2%
